Some of the results follow. Shown are side measurements of this screen, not its main read-out; they come without a call. Most of these compounds were active or inconclusive in the main read-out, so they are no random draw. Words in brackets tell the shape of the fitted curve; partial curves, single points and poor fits give uncertain potencies.
Assay: qHTS Assay for Lipid Storage Modulators in Drosophila S3 Cells;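 as to cell number change: cells counted by Cell Tracker Red CMTPX staining in the red channel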
Settings: BODIPY lipid droplet fluorescence, 18-24 h; for cell number change: measured here: cell count max response, cells fed with added oleic acid
Procedure, shortened: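 Laser-scanning cytometry quantifies lipid droplet accumulation (500–530 nm total intensity; droplet/cell object ratio) in oleic acid-fed (400 uM added) Drosophila S3 cells treated with a concentration series. 20 uM Triacsin C defined 100% inhibition.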

[1] = measured here: lipid fluorescence (Fed channel) AC50, cells fed with added oleic acid
[2] = measured here: cell number channel AC50, cells fed with added oleic acid

Row | SMILES | AC50 [1] | cell number change [%] | AC50 [2]
1 | CCC(C)NCC(=O)Nc1ccc(S(N)(=O)=O)cc1 (stereo not drawn) | 0.651 µM [rising, single point] |  | 
2 | Cc1ccc(C(=O)COC(=O)c2cn(-c3ccccc3)nc2-c2ccccc2)cc1[N+](=O)[O-] | 3.66 µM [rising, full curve, poor fit] | 1.69 | 
3 | COc1ccc(S(=O)(=O)N2CCC(N3CCCC3)CC2)cc1 |  | 13.7 | 
4 | CC(=O)NC12CC3CC(C1)CC(C(=O)N1CCN(S(=O)(=O)c4cccc(C(F)(F)F)c4)CC1)(C3)C2 |  | 38 | 2.06 µM [rising, partial curve]
5 | Cc1ccc2c(c1)nnn2C1CCN(S(C)(=O)=O)CC1 | 7.31 µM [falling, partial curve] |  | 4.11 µM [falling, single point]
6 | Cc1ccc(C(=O)NC2CCN(CC(=O)NC3CCC(C)CC3)CC2)cc1 (stereo not drawn) | 6.51 µM [rising, single point] | -3.15 | 
7 | CCC(CC)C(=O)Nc1nnc(S(=O)(=O)N2c3ccccc3CC2C)s1 (stereo not drawn) | 8.2 µM [falling, partial curve] | -21.3 | 
8 | COc1ccc(NC(=O)Nc2sc(NS(=O)(=O)c3ccccc3)nc2C)cc1 | 2.31 µM [falling, partial curve] |  | 0.58 µM [falling, full curve]
9 | CC(C)OC(=O)c1ccc(NC(=O)c2cncc(Br)c2)cc1 |  | -24.3 | 
10 | CN(C)C(=O)CSc1nnc(Cc2ccccc2)n1CC1CCCO1 (stereo not drawn) | 1.64 µM [falling, full curve, poor fit] | -22.9 | 
11 | Cc1ccc2nc(SCC(=O)Nc3ccc(F)cc3)nc(=O)n2c1 |  | 0.402 | 
12 | CCOc1ccc(NC(=O)c2ccc(NC(=S)NC3CCCCC3)cc2)cc1 |  | 1.91 | 
13 | Cc1ccc2nc3c(cc(C(=O)NCCN4CCOCC4)c(=N)n3CCCN3CCOCC3)c(=O)n2c1 |  | 14.1 | 
14 | COc1ccc2[nH]c(C(=O)NCc3ccc4c(c3)OCO4)cc2c1 | 0.291 µM [rising, full curve] | 1.22 | 0.164 µM [rising, full curve, poor fit]
15 | c1ccc(-c2nnc(N3CCN(c4ccccc4)CC3)nc2-c2ccccc2)cc1 | 0.517 µM [falling, full curve, poor fit] | -1.03 | 
16 | COC(=O)c1cc2c(C)[nH]c(C)c2cc(C(=O)OC)c1=O | 1.46 µM [rising, partial curve, poor fit] | 26.1 | 
17 | Cc1cc(=O)oc2c(C)c(OCC(=O)N3CCN(C(=O)C4COc5ccccc5O4)CC3)ccc12 (stereo not drawn) | 23.1 µM [rising, single point] | -10.6 | 
18 | CCOC(=O)C(NC(=O)CC)(Nc1ccccc1OC)C(F)(F)F (stereo not drawn) | 3.66 µM [falling, full curve] | -7.26 | 
19 | O=c1oc2ccc(Cl)cc2nc1/C=C(\O)c1cccs1 | 2.31 µM [rising, single point] | -19.6 | 
20 | COc1ccccc1CC(NC(C)=O)C(=O)N1CCN(C(=O)Nc2ccccc2Cl)CC1 (stereo not drawn) |  | 41.4 | 4.11 µM [rising, partial curve]

A section from further up, as a working copy:
Row | SMILES | AC50 [1] | cell number change [%] | AC50 [2]
2 | Cc1ccc(C(=O)COC(=O)c2cn(-c3ccccc3)nc2-c2ccccc2)cc1[N+](=O)[O-] | 3.66 µM [rising, full curve, poor fit] | 1.69 | 
3 | COc1ccc(S(=O)(=O)N2CCC(N3CCCC3)CC2)cc1 |  | 13.7 | 
4 | CC(=O)NC12CC3CC(C1)CC(C(=O)N1CCN(S(=O)(=O)c4cccc(C(F)(F)F)c4)CC1)(C3)C2 |  | 38 | 2.06 µM [rising, partial curve]

Further results.

Row | SMILES | AC50 [1] | cell number change [%] | AC50 [2]
21 | COc1cccc(CNCc2ccccc2OC)c1 |  | 24.6 | 
22 | C=CCNc1nc(Nc2ccc([N+](=O)[O-])cc2)nc(OCC)n1 | 1.03 µM [rising, full curve] | 12.2 | 
23 | COc1cc2c(c(O)c1OC)-c1c(cc(OC)c(OC)c1O)[C@@H](OC(=O)c1ccccc1)[C@@](C)(O)[C@@H](C)[C@@H]2OC(C)=O | 16.4 µM [falling, single point] | -20.1 | 
24 | O=C(COC(=O)c1cc(NS(=O)(=O)c2cccs2)ccc1O)Nc1ccccc1 | 13 µM [rising, single point] | 14.6 | 
25 | Cc1ccc(C(C)C)c(OCC(=O)N/N=C/c2cccn2C)c1 |  | -8.32 | 
26 | CCNC(=S)N1CCN(CCN=CC2=C(O)CC(c3cccs3)CC2=O)CC1 (stereo not drawn) | 2.06 µM [falling, partial curve] | 12.7 | 
27 | CC(C)CCOc1ccc(/C=N/N2C(=O)CSC2=S)cc1 | 5.8 µM [rising, partial curve] | 85.9 | 29.1 µM [rising, single point]
28 | N#Cc1cc2c(nc1SCC(N)=O)CCCCC2 | 5.17 µM [rising, full curve] | 25.6 | 
29 | O=C(CCS(=O)(=O)c1ccccc1)Nc1ccc(-c2nc3ccccc3s2)c(O)c1 |  | -10.4 | 
30 | COc1ccc(-c2ccc(SCC(=O)NCc3ccco3)nn2)cc1OC |  | 8.8 | 0.461 µM [rising, full curve, poor fit]
31 | N/C(=N\c1nc(C(F)(F)F)cc(=O)[nH]1)Nc1ccc(Cl)cc1 | 16.4 µM [falling, single point] | -43.7 | 16.4 µM [falling, single point]
32 | Cn1cc([N+](=O)[O-])c(C(=O)Nc2cnn(Cc3ccc(F)cc3)c2)n1 | 5.17 µM [rising, single point] | 2.44 | 
33 | Cc1cc(C)c(S(=O)(=O)N2CCCCC2CCNC(=O)C(=O)NCc2ccco2)c(C)c1 (stereo not drawn) | 23.1 µM [falling, single point] | -38.7 | 23.1 µM [falling, partial curve, poor fit]
34 | COc1cccc2[nH]c3c(N4CCC(C(N)=O)CC4)ncnc3c12 |  | 0.999 | 
35 | O=C(Nc1cccc(Cl)c1N1CCOCC1)c1cccs1 | 6.51 µM [falling, single point] | -11.5 | 
36 | CCc1cc(C(=O)NCCN(C)C)cs1 | 0.651 µM [falling, full curve, poor fit] | -16.5 | 
37 | CCN(CC(=O)Nc1c(F)cccc1F)C(=O)Cc1ccc(OC)c(S(=O)(=O)N2CCOCC2)c1 |  | 24 | 
38 | Cc1c(C(=O)c2ccc([N+](=O)[O-])cc2)c(=O)n(C)c(=O)n1C | 8.2 µM [falling, partial curve] | -25.1 | 
39 | NC(=O)c1ccccc1NC(=O)/C=C/c1c(Cl)cccc1Cl |  | -8.19 | 
40 | CCn1c(N2CCN(C(=O)C34CC5CC(CC(C5)C3)C4)CC2)nc2ccccc21 | 29.1 µM [falling, single point] | -54.9 | 3.26 µM [falling, full curve]

Source: PubChem BioAssay AID2685 (National Center for Advancing Translational Sciences (NCATS), 2010)
